Source: PMC11406491, “A Plasmonic Nanoledge Array Sensor for Selective Detection of Cardiovascular Disease Biomarkers in Human Whole Blood”
The exact form of at least one protein or probe is not confirmed. A negative result means that nothing was seen under these conditions.

System: creatine kinase (CK)
Assay: SPR (transmitted, EOT peak shift)
Conditions: up to 125 ng/mL, minimal shift, described as poor binding, human serum (Methods) or PBS (Fig S8), 5' amino modifier C6 (5AmMC6), Aptamer immobilized on gold nanoledge chip (cystamine/glutaraldehyde, PEG and glycine blocked), human serum or whole blood, 20 min incubation, commercial protein, single-stranded DNA

Question: Does “CGTGCAGTACGCCAACCTTTCTCATGCGCTGCCCCTCTTA [cTnI-specific aptamer]” bind?
Answer: no binding
